PubChem BioAssay AID1259405 | NCATS – 2018
Shown is an unselected part of about 50,000 reagents. Over the whole deposit, about 4,000 (8%) are marked active. 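Mouse siRNA library applied to hamster cells; one well for each siRNA.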 Reagents against one gene are numbered here.

Purpose: 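Mouse-designed siRNAs used to find CHO productivity engineering targets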 (primary screen)
Cells: Chinese hamster CHO-K1 ovary cells with stable secreted eGFP expression
Knock-down reagent: single siRNA against mouse genes, 0.8 pmol siRNA per well (2 µl of 400 nM stock)
Duration: 3 days
Measurement: 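Per-well intracellular GFP measured by laser scanning cytometry, plus viability from ATP luminescence, each relative to plate median of non-targeting control wells, in %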
Scale: GFP, % of control: higher = more GFP per well, higher productivity; viability (ATP), % of control: higher = more viable cells (more ATP)
Call rule: 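a knock-down is called active if GFP reaches 120% or more of non-targeting control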

gene symbol	reagent no.	GFP, % of control	viability (ATP), % of control	outcome
Bmal2	1	66.9	91.1	inactive
Bmal2	2	84.8	68.1	inactive
Mx2	1	53.2	90	inactive
Mx2	2	71	64.6	inactive
Mucl2	1	129	145	active
Mucl2	2	66.9	111	inactive
Mucl2	3	74.1	130	inactive
Amn	1	63.3	61.3	inactive
Amn	2	64.6	71.8	inactive
Amn	3	122	79.9	active
Nxph3	1	66.8	84	inactive
Nxph3	2	118	103	inactive
Nxph3	3	77.2	72.9	inactive
Or5b118	1	50.2	73.4	inactive
Or5b118	2	65.9	84.9	inactive
Or5b118	3	55.3	51.4	inactive
Myadm	1	58.2	67.4	inactive
Myadm	2	74.3	84.1	inactive
Myadm	3	64.8	62.8	inactive
Vmn1r41	1	68.3	34	inactive
Vmn1r41	2	83.5	72	inactive
Vmn1r41	3	86.5	90.4	inactive
Lypd10	1	109	147	inactive
Lypd10	2	88.2	58.6	inactive
Lypd10	3	126	149	active
Rps26	1	29.8	25.3	inactive
Rps26	2	36.2	27.2	inactive
Rps26	3	95.1	73.9	inactive
Gdpd1	1	109	79.5	inactive
Gdpd1	2	126	87.2	active
Gdpd1	3	71.9	53.3	inactive
Mmadhc	1	78.1	85.3	inactive
Mmadhc	2	56.7	83.4	inactive
Mmadhc	3	87.9	88.4	inactive
Siglecf	1	63.2	53.9	inactive
Siglecf	2	105	73.5	inactive
Gm4876	1	47.3	74.5	inactive
Gm4876	2	90.3	93.4	inactive
Gm4876	3	75.9	70.4	inactive
Atoh8	1	61.9	81.2	inactive
Atoh8	2	58.6	87.6	inactive
Atoh8	3	99.3	108	inactive
Or51d1	1	75.5	65.6	inactive
Or51d1	2	55.7	80.6	inactive
Or51d1	3	60	70.2	inactive
Pdlim2	1	94.1	91.8	inactive
Pdlim2	2	94.9	80.9	inactive
Zfp354b	1	56.6	63.5	inactive
Zfp354b	2	53.4	77	inactive
Zfp354b	3	86.4	68.7	inactive
Nkx2-1	1	87.2	84.4	inactive
Nkx2-1	2	65.9	99.7	inactive
Lyz2	1	117	108	inactive
Lyz2	2	86.2	92.2	inactive
Lyz2	3	89.1	64	inactive
Or1e33	1	68.6	72.9	inactive
Or1e33	2	81.8	42.9	inactive
Or1e33	3	69.4	94.3	inactive
Skida1	1	63	78.6	inactive
Skida1	2	83.1	80.9	inactive
Skida1	3	109	91.1	inactive
Cobll1	1	69.2	78.8	inactive
Cobll1	2	111	76.3	inactive
Cobll1	3	89.9	100	inactive
Abca3	1	76.1	96	inactive
Abca3	2	59.1	82.9	inactive
Abca3	3	63.3	54.2	inactive
Cd2ap	1	63.2	70.7	inactive
Cd2ap	2	69.5	70	inactive
Rela	1	101	99.4	inactive
Rela	2	28.3	28.6	inactive
Rela	3	75	99.9	inactive
Fut4	1	102	108	inactive
Fut4	2	83.4	113	inactive
Fut4	3	89.4	123	inactive
Tnfrsf18	1	58.7	45.4	inactive
Tnfrsf18	2	71.3	64.9	inactive
Tnfrsf18	3	46.7	41.8	inactive
Or12j5	1	90.1	82	inactive
Or12j5	2	123	129	active
Or12j5	3	49.9	60.1	inactive
Cyp3a16	1	144	127	active
Cyp3a16	2	72.3	75.2	inactive
Cyp3a16	3	38	45.9	inactive
Pgap6	1	54.6	51	inactive
Pgap6	2	93.8	105	inactive
Pgap6	3	156	120	active
Pgap6	4	127	91	active
Pgap6	5	124	85.9	active
Pgap6	6	80.2	110	inactive
Amy1	1	57.3	68.1	inactive
Amy1	2	96.3	112	inactive
Amy1	3	20.1	19.7	inactive
Ndufs4	1	68.6	93.8	inactive
Ndufs4	2	109	92	inactive
Nup54	1	66	65.1	inactive
Nup54	2	104	62.8	inactive
Nup54	3	79.4	97.5	inactive
Prap1	1	121	54.9	active
Prap1	2	143	57.4	active
Prap1	3	137	103	active
Tmem132d	1	64.6	91.4	inactive
Tmem132d	2	70.3	81.2	inactive
Tmem132d	3	93.4	109	inactive
Or1n1	1	79.3	52.8	inactive
Or1n1	2	75.5	75.3	inactive
Or1n1	3	58.5	116	inactive

Not a retest: 13 of the entries above.
gene symbol	reagent no.	GFP, % of control	viability (ATP), % of control	outcome
Fut4	2	83.4	113	inactive
Fut4	3	89.4	123	inactive
Tnfrsf18	1	58.7	45.4	inactive
Tnfrsf18	2	71.3	64.9	inactive
Tnfrsf18	3	46.7	41.8	inactive
Or12j5	1	90.1	82	inactive
Or12j5	2	123	129	active
Or12j5	3	49.9	60.1	inactive
Cyp3a16	1	144	127	active
Cyp3a16	2	72.3	75.2	inactive
Cyp3a16	3	38	45.9	inactive
Pgap6	1	54.6	51	inactive
Pgap6	2	93.8	105	inactive
